The values below are quoted from earlier work in patent US9539221B2, “Method of treating airway diseases with β-adrenergic inverse agonists” (EGB ADVISORS, LLC, priority 2003, dated 2017).

For this data set the following is noted: after inhalation; cited from earlier work.

As to `CN1[C@@H]2CC[C@H]1C[C@@H](OC(=O)C(CO)c1ccccc1)C2` (stereo partly shown) [atropine], the systemic absorption entry is “nearly complete”.
